US20220403031A1
No constants are given. Whether binding was seen depends on the method and setting.

How the values were obtained:
CD22.his = assay: non-specific binding ELISA, antigen coated at 2 ug/mL
FGFR.his = assay: as above

binding (CD22.his): no binding (tested: 10 µg/ml)
binding (FGFR.his): no binding (tested: 10 µg/ml)
B1: AP3R2-1A3-z12-hIgG1 (Fc fusion, not shown: a dimerising Fc or GST)
chain: EVQLVESGGGLVQPGGSLRLSCAASGHFSNLAVNWFRQAPGKERELVAGILWSGGSTFYADSVKGRFTISRGNAENMLYLQMNSLRAEDTAVYYCNTGTNWGQGTLVTVSS
